According to PMC8812904:
Positions count from the first letter of the chain named. Numbers in names are those of the source. No constants are given. Whether binding was seen depends on the method and setting. For some assays here: Binding calls can cover weak binding; strength is not graded here. For some assays here: Binding seen in cells or lysates may run through a third protein. For some assays here: Sequences can lack the tags named with a protein.

How the values were obtained:
[1] = biological target: TuMV VPg bait (pBT3-STE) of the split-ubiquitin membrane yeast two-hybrid (Turnip mosaic virus (strain UK1)); assay: two-hybrid; split-ubiquitin membrane-based yeast two-hybrid (DUALmembrane), NMY51 yeast; TuMV proteins as bait in pBT3-STE, AtVSR4 as prey in pPR3-N; selection on SD-LWHA with 25 mM 3AT
[2] = biological target: TuMV 6K2 bait (pBT3-STE) of the split-ubiquitin membrane yeast two-hybrid (Turnip mosaic virus (strain UK1)); assay: as above
[3] = biological target: TuMV P1 bait (pBT3-STE) of the split-ubiquitin membrane yeast two-hybrid (Turnip mosaic virus (strain UK1)); assay: as above
[4] = biological target: 3×flag-tagged TuMV 6K2 (Turnip mosaic virus (strain UK1)); assay: co-IP; proteins transiently co-expressed in N. benthamiana leaves; cleared lysates immunopurified with anti-Flag M2 gel, immunoblot with anti-Flag and anti-GFP or anti-myc antibodies
[5] = biological target: C-luc-6K2 (Turnip mosaic virus (strain UK1)); assay: split reporter; luciferase complementation imaging (LCI) in N. benthamiana leaves by agroinfiltration (OD600 0.50); 0.2 mM LUC substrate, imaged at 2 dpi
[6] = biological target: TuMV VPg, BiFC fusion with the C-terminal fragment of YFP (Turnip mosaic virus (strain UK1)); assay: split reporter; BiFC in N. benthamiana leaf cells by agroinfiltration; TuMV genes in p35S-gateway-YFP-C, host genes in p35S-YFP-N; confocal microscopy at 2 dpai
[7] = biological target: TuMV P1, BiFC fusion with the C-terminal fragment of YFP (Turnip mosaic virus (strain UK1)); assay: as above
[8] = biological target: TuMV 6K2^YC (BiFC fusion) (Turnip mosaic virus (strain UK1)); assay: as above
[9] = biological target: 3×flag-tagged TuMV VPg (Turnip mosaic virus (strain UK1)); assay: co-IP; proteins transiently co-expressed in N. benthamiana leaves; cleared lysates immunopurified with anti-Flag M2 gel, immunoblot with anti-Flag and anti-GFP or anti-myc antibodies

B1: AtVSR4 prey (pPR3-N) of the split-ubiquitin membrane yeast two-hybrid (protein, UniProt Q56ZQ3 25-628)
chain: RFVVEKNSLSVTSPESIKGTHDSAIGNFGIPQYGGSMAGTVVYPKENQKSCKEFSDFSISFKSQPGALPTFLLVDRGDCFFALKVWNAQKAGASAVLVADNVDEPLITMDTPEEDVSSAKYIENITIPSALVTKGFGEKLKKAISGGDMVNLNLDWREAVPHPDDRVEYELWTNSNDECGVKCDMLMEFVKDFKGAAQILEKGGFTQFRPHYITWYCPHAFTLSRQCKSQCINKGRYCAPDPEQDFSSGYDGKDVVVENLRQLCVYKVANETGKPWVWWDYVTDFQIRCPMKEKKYNKDCAESVIKSLGIDSRKIDKCMGDPDADLDNPVLKEEQDAQVGKGTRGDVTILPTLVVNNRQYRGKLEKSAVLKALCSGFEESTEPAICLSTDMETNECLDNNGGCWQDKSANITACKDTFRGKVCVCPIVDGVRFKGDGYSHCEPSGPGRCTINNGGCWHEERDGHAFSACVDKDSVKCECPPGFKGDGVKKCEDINECKEKKACQCPECSCKNTWGSYECSCSGDLLYMRDHDTCISKTGSQVKSAWAAVWLIMLSLGLAAAGAYLVYKYRLRQYMDSEIRAIMAQYMPLDSQPEVPNHTNDERA
binding [1]: binds | binding [2]: binds | binding [3]: binds

B2: AtVSR4 double mutant (DM) (protein, UniProt Q56ZQ3 25-628)
chain: B1 chain with E578A, I582A, M583A, Y586A, L589A
binding [4]: binds

B3: AtVSR4TM-myc (protein, UniProt Q56ZQ3 25-628)
chain: B1 chain with N124Q, N270Q, N410Q
binding [4]: binds weakly

B4: TM-N-luc (protein, UniProt Q56ZQ3 25-628)
chain: B1 chain with N124Q, N270Q, N410Q
binding [5]: binds weakly

B5: AtVSR4-myc (protein, UniProt Q56ZQ3 25-628)
chain: B1 chain
modifications: N-linked high-mannose glycans at N148, N294 and N434
binding [4]: binds

B6: VSR4-N-luc (protein, UniProt Q56ZQ3 25-628)
chain: B1 chain
binding [5]: binds

B7: AtVSR4^YN (BiFC fusion) (protein, UniProt Q56ZQ3 25-628)
chain: B1 chain
binding [6]: binds weakly | binding [7]: no binding | binding [8]: binds

B8: YFP-tagged AtVSR4 (protein, UniProt Q56ZQ3 25-628)
chain: B1 chain
binding [9]: no binding | binding [4]: binds

B9: AtVSR4 AMPA mutant (protein, UniProt Q56ZQ3 25-628)
chain: B1 chain with Y586A, L589A
binding [4]: binds

B10: AtVSR4 AIRAAA mutant (protein, UniProt Q56ZQ3 25-628)
chain: B1 chain with E578A, I582A, M583A
binding [4]: binds

B11: Endosome-localized AtVSR1, BiFC negative control (protein, UniProt P93026 23-623)
chain: VEKNNLKVTSPDSIKGIYECAIGNFGVPQYGGTLVGTVVYPKSNQKACKSYSDFDISFKSKPGRLPTFVLIDRGDCYFTLKAWIAQQAGAAAILVADSKAEPLITMDTPEEDKSDADYLQNITIPSALITKTLGDSIKSALSGGDMVNMKLDWTESVPHPDERVEYELWTNSNDECGKKCDTQIEFLKNFKGAAQILEKGGHTQFTPHYITWYCPEAFTLSKQCKSQCINHGRYCAPDPEQDFTKGYDGKDVVVQNLRQACVYRVMNDTGKPWVWWDYVTDFAIRCPMKEKKYTKECADGIIKSLGIDLKKVDKCIGDPEADVENPVLKAEQESQIGKGSRGDVTILPTLVVNNRQYRGKLEKGAVLKAMCSGFQESTEPAICLTEDLETNECLENNGGCWQDKAANITACRDTFRGRLCECPTVQGVKFVGDGYTHCKASGALHCGINNGGCWRESRGGFTYSACVDDHSKDCKCPLGFKGDGVKNCEDVDECKEKTVCQCPECKCKNTWGSYECSCSNGLLYMREHDTCIGSGKVGTTKLSWSFLWILIIGVGVAGLSGYAVYKYRIRSYMDAEIRGIMAQYMPLESQPPNTSGHHMDI
binding [8]: no binding

B12: AtVSR4-C1A (protein, UniProt Q56ZQ3 25-628)
chain: B1 chain with Q573A, Y574A, M575A, D576A, S577A
binding [4]: no binding
